Where “and” joins values, the source holds several entries; their conditions need not be identical. Identical values can stand only once. Like-named read-outs stand apart in the source and are kept apart here. The source gives many values for each of these; only a part stands here.
Test system: ATCC strain 43300 Staphylococcus aureus

CS(C)(=O)=O [MSM, Methylsulfonylmethane]
survival (cfu/ml) (12 μg/ml oxacillin (re-added every 24 hours) + MSM (% in label), 24 hours, three columns = triplicate platings, inoculum 3.3×10^5/ml, listed as 5% MSM): 8.4 × 10^3 cfu/ml and 8.0 × 10^3 cfu/ml
survival (cfu/ml) (12 μg/ml oxacillin (re-added every 24 hours) + MSM (% in label), 24 hours, three columns = triplicate platings, inoculum 3.3×10^5/ml, listed as 6% MSM): 8.6 × 10^3 cfu/ml and 8.5 × 10^3 cfu/ml and 8.0 × 10^3 cfu/ml
survival (cfu/ml) (12 μg/ml oxacillin (re-added every 24 hours) + MSM (% in label), 24 hours, three columns = triplicate platings, inoculum 3.3×10^5/ml, listed as 7% MSM): 8.2 × 10^3 cfu/ml and 8.5 × 10^3 cfu/ml and 8.3 × 10^3 cfu/ml
survival (cfu/ml) (12 μg/ml oxacillin (re-added every 24 hours) + MSM (% in label), 24 hours, three columns = triplicate platings, inoculum 3.3×10^5/ml, listed as 8% MSM): 6.6 × 10^3 cfu/ml and 6.9 × 10^3 cfu/ml
survival (cfu/ml) (12 μg/ml oxacillin (re-added every 24 hours) + MSM (% in label), 24 hours, three columns = triplicate platings, inoculum 3.3×10^5/ml, listed as 9% MSM): 5.6 × 10^3 cfu/ml and 5.2 × 10^3 cfu/ml and 5.0 × 10^3 cfu/ml
survival (cfu/ml) (12 μg/ml oxacillin (re-added every 24 hours) + MSM (% in label), 24 hours, three columns = triplicate platings, inoculum 3.3×10^5/ml, listed as 10% MSM): 5.8 × 10^3 cfu/ml and 5.6 × 10^3 cfu/ml and 6.0 × 10^3 cfu/ml
survival (cfu/ml) (12 μg/ml oxacillin (re-added every 24 hours) + MSM (% in label), 24 hours, three columns = triplicate platings, inoculum 3.3×10^5/ml, listed as 11% MSM): 8.2 × 10^3 cfu/ml and 8.5 × 10^3 cfu/ml and 8.0 × 10^3 cfu/ml
survival (cfu/ml) (12 μg/ml oxacillin (re-added every 24 hours) + MSM (% in label), 24 hours, three columns = triplicate platings, inoculum 3.3×10^5/ml, listed as 12% MSM): 7.0 × 10^3 cfu/ml and 7.3 × 10^3 cfu/ml
survival (cfu/ml) (12 μg/ml oxacillin (re-added every 24 hours) + MSM (% in label), 24 hours, three columns = triplicate platings, inoculum 3.3×10^5/ml, listed as 13% MSM): 9.0 × 10^3 cfu/ml and 8.7 × 10^3 cfu/ml and 9.2 × 10^3 cfu/ml
survival (cfu/ml) (12 μg/ml oxacillin (re-added every 24 hours) + MSM (% in label), 24 hours, three columns = triplicate platings, inoculum 3.3×10^5/ml, listed as 14% MSM): 1.00 × 10^4 cfu/ml and 1.02 × 10^4 cfu/ml and 1.01 × 10^4 cfu/ml
survival (cfu/ml) (12 μg/ml oxacillin (re-added every 24 hours) + MSM (% in label), 24 hours, three columns = triplicate platings, inoculum 3.3×10^5/ml, listed as 15% MSM): 1.29 × 10^4 cfu/ml
survival (cfu/ml) (12 μg/ml oxacillin + MSM (% in label), 48 hours, triplicate platings, listed as 5% MSM): 4.5 × 10^3 cfu/ml and 4.0 × 10^3 cfu/ml and 4.2 × 10^3 cfu/ml
survival (cfu/ml) (12 μg/ml oxacillin + MSM (% in label), 48 hours, triplicate platings, listed as 6% MSM): 1.7 × 10^3 cfu/ml and 1.4 × 10^3 cfu/ml
survival (cfu/ml) (12 μg/ml oxacillin + MSM (% in label), 48 hours, triplicate platings, listed as 7% MSM): 9.0 × 10^3 cfu/ml and 8.9 × 10^3 cfu/ml and 8.5 × 10^3 cfu/ml
survival (cfu/ml) (12 μg/ml oxacillin + MSM (% in label), 48 hours, triplicate platings, listed as 8% MSM): 4.9 × 10^3 cfu/ml and 5.4 × 10^3 cfu/ml
survival (cfu/ml) (12 μg/ml oxacillin + MSM (% in label), 48 hours, triplicate platings, listed as 9% MSM): 2.4 × 10^3 cfu/ml and 2.5 × 10^3 cfu/ml and 2.3 × 10^3 cfu/ml
survival (cfu/ml) (12 μg/ml oxacillin + MSM (% in label), 48 hours, triplicate platings, listed as 10% MSM): 5.6 × 10^2 cfu/ml and 5.4 × 10^2 cfu/ml
survival (cfu/ml) (12 μg/ml oxacillin + MSM (% in label), 48 hours, triplicate platings, listed as 11% MSM): 6.4 × 10^2 cfu/ml and 5.8 × 10^2 cfu/ml and 6.5 × 10^2 cfu/ml
survival (cfu/ml) (12 μg/ml oxacillin + MSM (% in label), 48 hours, triplicate platings, listed as 12% MSM): 3.6 × 10^2 cfu/ml and 4.0 × 10^2 cfu/ml and 4.2 × 10^2 cfu/ml
survival (cfu/ml) (12 μg/ml oxacillin + MSM (% in label), 48 hours, triplicate platings, listed as 13% MSM): 6.8 × 10^2 cfu/ml and 5.8 × 10^2 cfu/ml
survival (cfu/ml) (12 μg/ml oxacillin + MSM (% in label), 48 hours, triplicate platings, listed as 14% MSM): 1.0 × 10^1 cfu/ml and 1.2 × 10^1 cfu/ml and 1.1 × 10^1 cfu/ml
survival (cfu/ml) (12 μg/ml oxacillin + MSM (% in label), 48 hours, triplicate platings, listed as 15% MSM): 5.0 × 10^3 cfu/ml and 4.5 × 10^3 cfu/ml and 4.6 × 10^3 cfu/ml
survival (cfu/ml) (12 μg/ml oxacillin + MSM (% in label), 48 hours, triplicate platings, listed as 16% MSM): 4.2 × 10^3 cfu/ml and 5.0 × 10^3 cfu/ml and 4.3 × 10^3 cfu/ml
survival, Average Log (12 μg/ml oxacillin + MSM (% in label), 72 hours, listed as 16% MSM): 2.1 Log
survival (cfu/ml) (12 μg/ml oxacillin + MSM (% in label), 72 hours, triplicate platings, listed as 5% MSM): >3.3 × 10^5 cfu/ml
survival (cfu/ml) (12 μg/ml oxacillin + MSM (% in label), 72 hours, triplicate platings, listed as 6% MSM): >3.3 × 10^5 cfu/ml
survival (cfu/ml) (12 μg/ml oxacillin + MSM (% in label), 72 hours, triplicate platings, listed as 7% MSM): >3.3 × 10^5 cfu/ml
survival (cfu/ml) (12 μg/ml oxacillin + MSM (% in label), 72 hours, triplicate platings, listed as 8% MSM): >3.3 × 10^5 cfu/ml
survival (cfu/ml) (12 μg/ml oxacillin + MSM (% in label), 72 hours, triplicate platings, listed as 9% MSM): 4.7 × 10^4 cfu/ml and 4.2 × 10^4 cfu/ml and 4.5 × 10^4 cfu/ml
survival (cfu/ml) (12 μg/ml oxacillin + MSM (% in label), 72 hours, triplicate platings, listed as 10% MSM): 1.2 × 10^4 cfu/ml and 1.1 × 10^4 cfu/ml and 1.0 × 10^4 cfu/ml
survival (cfu/ml) (12 μg/ml oxacillin + MSM (% in label), 72 hours, triplicate platings, listed as 11% MSM): 4.4 × 10^3 cfu/ml and 4.5 × 10^3 cfu/ml and 4.0 × 10^3 cfu/ml
survival (cfu/ml) (12 μg/ml oxacillin + MSM (% in label), 72 hours, triplicate platings, listed as 12% MSM): 1.5 × 10^3 cfu/ml and 1.1 × 10^3 cfu/ml and 1.3 × 10^3 cfu/ml
survival (cfu/ml) (12 μg/ml oxacillin + MSM (% in label), 72 hours, triplicate platings, listed as 13% MSM): 5.2 × 10^2 cfu/ml and 5.1 × 10^2 cfu/ml and 5.4 × 10^2 cfu/ml
survival (cfu/ml) (12 μg/ml oxacillin + MSM (% in label), 72 hours, triplicate platings, listed as 14% MSM): 1.1 × 10^2 cfu/ml and 1.2 × 10^2 cfu/ml
survival (cfu/ml) (12 μg/ml oxacillin + MSM (% in label), 72 hours, triplicate platings, listed as 15% MSM): 2.3 × 10^2 cfu/ml and 2.2 × 10^2 cfu/ml and 1.2 × 10^2 cfu/ml
survival (cfu/ml) (12 μg/ml oxacillin + MSM (% in label), 72 hours, triplicate platings, listed as 16% MSM): 1.1 × 10^2 cfu/ml and 1.2 × 10^2 cfu/ml and 1.6 × 10^2 cfu/ml
survival, Average Log (12 μg/ml oxacillin + MSM (% in label), 96 hours, listed as 5% MSM): 5.5 Log
survival, Average Log (12 μg/ml oxacillin + MSM (% in label), 96 hours, listed as 6% MSM): 5.5 Log
survival, Average Log (12 μg/ml oxacillin + MSM (% in label), 96 hours, listed as 7% MSM): 5.5 Log
survival, Average Log (12 μg/ml oxacillin + MSM (% in label), 96 hours, listed as 8% MSM): 5.5 Log
survival, Average Log (12 μg/ml oxacillin + MSM (% in label), 96 hours, listed as 9% MSM): 5.5 Log
survival, Average Log (12 μg/ml oxacillin + MSM (% in label), 96 hours, listed as 10% MSM): 5.5 Log
survival, Average Log (12 μg/ml oxacillin + MSM (% in label), 96 hours, listed as 11% MSM): 5.5 Log
survival, Average Log (12 μg/ml oxacillin + MSM (% in label), 96 hours, listed as 12% MSM): 3.8 Log
survival, Average Log (12 μg/ml oxacillin + MSM (% in label), 96 hours, listed as 13% MSM): 3.2 Log
survival, Average Log (12 μg/ml oxacillin + MSM (% in label), 96 hours, listed as 14% MSM): 1.8 Log
survival, Average Log (12 μg/ml oxacillin + MSM (% in label), 96 hours, listed as 15% MSM): 2.1 Log
survival, Average Log (12 μg/ml oxacillin + MSM (% in label), 96 hours, listed as 16% MSM): 2.2 Log
survival (cfu/ml) (12 μg/ml oxacillin + MSM (% in label), 96 hours, triplicate platings, listed as 5% MSM): >3.3 × 10^5 cfu/ml
survival (cfu/ml) (12 μg/ml oxacillin + MSM (% in label), 96 hours, triplicate platings, listed as 6% MSM): >3.3 × 10^5 cfu/ml
survival (cfu/ml) (12 μg/ml oxacillin + MSM (% in label), 96 hours, triplicate platings, listed as 7% MSM): >3.3 × 10^5 cfu/ml
survival (cfu/ml) (12 μg/ml oxacillin + MSM (% in label), 96 hours, triplicate platings, listed as 8% MSM): >3.3 × 10^5 cfu/ml
survival (cfu/ml) (12 μg/ml oxacillin + MSM (% in label), 96 hours, triplicate platings, listed as 9% MSM): >3.3 × 10^5 cfu/ml
survival (cfu/ml) (12 μg/ml oxacillin + MSM (% in label), 96 hours, triplicate platings, listed as 10% MSM): >3.3 × 10^5 cfu/ml
survival (cfu/ml) (12 μg/ml oxacillin + MSM (% in label), 96 hours, triplicate platings, listed as 11% MSM): >3.3 × 10^5 cfu/ml
survival (cfu/ml) (12 μg/ml oxacillin + MSM (% in label), 96 hours, triplicate platings, listed as 12% MSM): 6.8 × 10^3 cfu/ml and 7.0 × 10^3 cfu/ml
survival (cfu/ml) (12 μg/ml oxacillin + MSM (% in label), 96 hours, triplicate platings, listed as 13% MSM): 1.6 × 10^3 cfu/ml and 1.7 × 10^3 cfu/ml and 1.2 × 10^3 cfu/ml
survival (cfu/ml) (12 μg/ml oxacillin + MSM (% in label), 96 hours, triplicate platings, listed as 14% MSM): 6.0 × 10^1 cfu/ml and 5.0 × 10^1 cfu/ml
survival (cfu/ml) (12 μg/ml oxacillin + MSM (% in label), 96 hours, triplicate platings, listed as 15% MSM): 1.2 × 10^2 cfu/ml and 1.3 × 10^2 cfu/ml
survival (cfu/ml) (12 μg/ml oxacillin + MSM (% in label), 96 hours, triplicate platings, listed as 16% MSM): 1.4 × 10^2 cfu/ml and 1.6 × 10^2 cfu/ml
survival, Average Log (12 μg/ml oxacillin + MSM (% in label), 120 hours, listed as 5% MSM): 5.5 Log
survival, Average Log (12 μg/ml oxacillin + MSM (% in label), 120 hours, listed as 6% MSM): 5.5 Log
survival, Average Log (12 μg/ml oxacillin + MSM (% in label), 120 hours, listed as 7% MSM): 5.5 Log
